# According to article PMC5996148:
# This is one part of the list.
# Tests used:
# Assay in all cases: protein microarray (ProtoArray v5.0), streptavidin-Alexa Fluor 647
# Details in all cases: 3'-biotin; 20 mM Tris (pH 7.5), 5 mM MgCl2, 100 mM KCl, 0.1% Tween-20, A/T-rich and random oligonucleotide blockers; temperature not stated; high values mean tight binding
# [1] = system: Serum amyloid A protein (human)
# [2] = system: Signal recognition particle 9 kDa protein (human)
# [3] = system: Signal transducer and activator of transcription 4 (human)
# [4] = system: Signal transducer and activator of transcription 6 (human)
# [5] = system: Smith-Magenis syndrome chromosome region candidate gene 7 protein (human)
# [6] = system: Sodium channel and clathrin linker 1 (human)
# [7] = system: Sodium channel subunit beta-1 (human)
# [8] = system: Sodium/glucose cotransporter 2 (human)
# [9] = system: Solute carrier family 22 member 12 (human)
# [10] = system: Solute carrier family 35 member F2 (human)
sequence,measurement,setting,value
GGGGACAGGGGTATGGGGAGGGG [G4-3 biotinylated (CtG)],binding signal,[1],-0.302 z-score
same,binding signal,[2],-0.33 z-score
same,binding signal,[3],-0.322 z-score
same,binding signal,[4],-0.319 z-score
same,binding signal,[5],-0.337 z-score
same,binding signal,[6],-0.332 z-score
same,binding signal,[7],-0.327 z-score
same,binding signal,[8],-0.33 z-score
same,binding signal,[9],-0.323 z-score
same,binding signal,[10],-0.322 z-score

# In a second layout: results already given
sequence	measurement	setting	value
GGGGACAGGGGTATGGGGAGGGG [G4-3 biotinylated (CtG)]	binding signal	[1]	-0.302 z-score
same	binding signal	[2]	-0.33 z-score
